Measurements from publication PMC5778034.
These are yes or no findings as the source states them, for the method shown. In cells and extracts the contact can be indirect. Some entries that bind do so weakly or less than the wild type.

The chains behind the UniProt entries cited, without tags or fusion partners.
UniProt P31749: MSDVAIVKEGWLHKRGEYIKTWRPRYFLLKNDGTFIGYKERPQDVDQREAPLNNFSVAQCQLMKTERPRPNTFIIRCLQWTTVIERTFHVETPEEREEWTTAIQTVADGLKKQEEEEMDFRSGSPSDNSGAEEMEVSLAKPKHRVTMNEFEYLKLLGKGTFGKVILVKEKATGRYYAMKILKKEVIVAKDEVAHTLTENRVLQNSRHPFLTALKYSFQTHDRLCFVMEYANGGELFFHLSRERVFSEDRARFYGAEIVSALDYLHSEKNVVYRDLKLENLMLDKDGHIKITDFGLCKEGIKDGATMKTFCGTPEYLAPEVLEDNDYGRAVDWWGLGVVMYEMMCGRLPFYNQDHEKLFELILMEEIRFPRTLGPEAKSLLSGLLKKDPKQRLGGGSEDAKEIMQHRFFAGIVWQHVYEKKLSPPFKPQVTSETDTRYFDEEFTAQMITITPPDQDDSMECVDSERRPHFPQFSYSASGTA

Biological target: Akt1 (PKBα) (human) (UniProt P31749)
Test: co-IP; asynchronous Akt1-expressing HEK293 cells lysed in IP buffer; affinity purification by the SH tag of Akt1; eluates probed by western blot with antibodies against the partners

binding: binds
B1: API5 (protein, UniProt Q9BZZ5 1-524)
chain: MPTVEELYRNYGILADATEQVGQHKDAYQVILDGVKGGTKEKRLAAQFIPKFFKHFPELADSAINAQLDLCEDEDVSIRRQAIKELPQFATGENLPRVADILTQLLQTDDSAEFNLVNNALLSIFKMDAKGTLGGLFSQILQGEDIVRERAIKFLSTKLKTLPDEVLTKEVEELILTESKKVLEDVTGEEFVLFMKILSGLKSLQTVSGRQQLVELVAEQADLEQTFNPSDPDCVDRLLQCTRQAVPLFSKNVHSTRFVTYFCEQVLPNLGTLTTPVEGLDIQLEVLKLLAEMSSFCGDMEKLETNLRKLFDKLLEYMPLPPEEAENGENAGNEEPKLQFSYVECLLYSFHQLGRKLPDFLTAKLNAEKLKDFKIRLQYFARGLQVYIRQLRLALQGKTGEALKTEENKIKVVALKITNNINVLIKDLFHIPPSYKSTVTLSWKPVQKVEIGQKRASEDTTSGSPPKKSSAGPKRDARQIYNPPSGKYSSNLGNFNYEQRGAFRGSRGGRGWGTRGNRSRGRLY
